The full ranking holds about 33,000 sequences; the median of “E-score (-0.5 to 0.5)” is about -8e-05, and the highest 2% start at about 0.23. This is one part of the list.
These sequences were tested against T1, Nrg2 (UniProt P38082) (assay: PBM E-score (8-mer binding enrichment) (E-score (-0.5 to 0.5)); higher = stronger / more preferred TF binding). Conditions: protein concentration: 100 nM; construct: GST-full length.
T1 sequence: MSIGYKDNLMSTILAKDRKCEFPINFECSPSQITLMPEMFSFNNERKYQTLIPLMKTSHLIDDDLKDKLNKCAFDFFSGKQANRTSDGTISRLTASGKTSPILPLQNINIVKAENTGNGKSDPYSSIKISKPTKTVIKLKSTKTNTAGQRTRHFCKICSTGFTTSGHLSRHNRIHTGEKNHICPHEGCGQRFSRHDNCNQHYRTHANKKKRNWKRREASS
How it was run: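 PURExpress in vitro transcription/translation supplied GST-tagged yeast transcription factors, either full-length or DNA-binding domain. Applied at about 100-200 nM to universal all-10-mer Agilent arrays double-stranded by primer extension, the bound protein was detected with fluorescent anti-GST. E-scores, modified Wilcoxon-Mann-Whitney statistics, were given by the Universal PBM Analysis Suite to ungapped eight-base words pooled with their reverse complements after masliner normalisation.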

In order of rising “PBM E-score” value:
1. CCCCCACC  -0.382
2. CTAGAGTC  -0.344
3. ACCGGGGA  -0.317
4. GCCCGTCC  -0.307
5. ACCTGGGC  -0.294
6. ACGTAGGG  -0.292
7. AAGGCATC  -0.282
8. ATAGCCTG  -0.224
9. AAGGCGTA  -0.214
10. ACTCTGAG  -0.211
11. GTACCCGA  -0.211
12. AGAGGAGC  -0.209
13. CTCTCCGA  -0.209
14. AGGCTCAG  -0.206
15. CTTCTAGA  -0.204
16. ACCATGGT  -0.195
17. CTCCCATA  -0.19
18. ATACCCCC  -0.177
19. CCCCGGGG  -0.175
20. ATCTCTTG  -0.169
21. AGTAGCTC  -0.158
22. ACGGTACG  -0.157
23. GACAGTCA  -0.155
24. CCTACATA  -0.152
25. ACTCGTGA  -0.145
26. GTATCCTA  -0.143
27. CCTCATGC  -0.141
28. CCGTAACC  -0.136
29. ACCGTCCC  -0.136
30. ATTAAGAC  -0.136
31. AGTTTTTA  -0.134
32. GAGGGAAA  -0.134
33. AGAGACTC  -0.129
34. CGGTCGTC  -0.128
35. ATAGGCTG  -0.127
36. AAGCCCAG  -0.126
37. GCTACGCC  -0.122
38. CTTACACC  -0.12
39. TACATGAA  -0.115
40. CGCCCCGC  -0.112
41. CCGGGTGA  -0.104
42. CGTAGAAA  -0.0991
43. AATCCATG  -0.0915
44. ATTTCTAC  -0.0899
45. GCTTCGAC  -0.0891
46. GCACGTGA  -0.0876
47. CCTAGGTA  -0.0874
48. AGGAAGCA  -0.0844
49. CCCCTTTA  -0.0844
50. CAGTCGCC  -0.0835
51. GACTGCAA  -0.0832
52. GAGAAGAA  -0.0817
53. ACTGGACT  -0.0793
54. ACACTGCT  -0.0746
55. CACAACAA  -0.0736
56. ACTATGTC  -0.0732
57. AAAGTGCT  -0.072
58. CTTGGACA  -0.0703
59. GTCCTGTA  -0.0697
60. CCAAATGG  -0.0658
61. CACAGACG  -0.0651
62. GAGGATCA  -0.0642
63. GGTGTTGA  -0.0624
64. AACAGAAT  -0.058
65. AACGTTCG  -0.0564
66. GTGGTTGA  -0.055
67. AGGGCACT  -0.0548
68. AGGTTCTG  -0.0492
69. AGCGATTG  -0.0488
70. CACGGGAA  -0.0452
71. GAAAGAGA  -0.04
72. ATCAGGTG  -0.039
73. CACCTGCG  -0.0377
74. ATGTGAGC  -0.0373
75. GCGTGTCC  -0.0355
76. CAAGTGGA  -0.0345
77. GGCGGAAA  -0.0333
78. TGTACACA  -0.0321
79. CCCAGACG  -0.0304
80. CATTTTGG  -0.0285
81. CGTCCCGC  -0.028
82. AGATTCAT  -0.0273
83. ATACTCTC  -0.0255
84. AGCCGGAT  -0.0222
85. CACCCGTA  -0.0208
86. AAGCACCT  -0.0193
87. ATCCGCTG  -0.0161
88. ACATAGAC  -0.016
89. TGCGGCCA  -0.0142
90. ACTTCTAA  -0.0126
91. AAATTCAT  -0.00189
92. CGTACTAC  -0.00081
93. CGGTTCGC  2e-05
94. GTGTAAAC  0.00127
95. ATACCGTG  0.00169
96. CATTCAGA  0.00234
97. GAGAACCA  0.00307
98. GCATAAAA  0.00462
99. ATCCGCTA  0.00576
100. AACTTCCG  0.00745
101. ACTGAGAG  0.0147
102. AGCCTTGC  0.0158
103. AAAGGATT  0.0159
104. CACCTCGG  0.0179
105. ACTTCATG  0.0194
106. GGAACTCC  0.0233
107. CTGACAAA  0.0246
108. CGCATAAA  0.0248
109. ACGCGCCG  0.025
110. ACCCCGGA  0.0302
111. GTAAATAA  0.0336
112. CTAAATCA  0.0351
113. TGCCAGAA  0.0378
114. AGTCAGGG  0.0383
115. ACGGAGCG  0.0402
116. GTGGCATA  0.0404
117. ACTTTAAT  0.0404
118. GCACTCAA  0.0408
119. CGAGTGCG  0.0439
120. AAGATAGC  0.0443
121. CTAAAGCA  0.0491
122. AGTCGAAA  0.0504
123. ATCGTCCG  0.0505
124. ATATTGGC  0.0588
125. ATTGCAGA  0.0609
126. GATACACA  0.0621
127. CACCCTGG  0.0652
128. CCTGAGGA  0.0658
129. AAGTGCGT  0.0697
130. TCCAATAA  0.0718
131. CCGCGAAC  0.0734
132. AACGTACT  0.0763
133. AAGCTTTG  0.077
134. AGAAATAG  0.0811
135. AAACTTTA  0.0843
136. AGGACATA  0.0877
137. AACAGTTA  0.0888
138. ATATGCCG  0.0896
139. CGGGAAAC  0.0907
140. GAAGCACA  0.1
141. ACACATGT  0.101
142. CAACCACA  0.105
143. AGCCCTAT  0.107
144. CTCGGCAG  0.107
145. ACACATCC  0.107
146. AGATGGAA  0.109
147. GACATAAA  0.109
148. CATTAACG  0.109
149. GTATTCAA  0.11
150. TCAGGTCA  0.116
151. GGTTGAAC  0.116
152. CCTGATTC  0.12
153. ATATCACG  0.122
154. AATCTGGT  0.125
155. AAAAGGCA  0.125
156. AACTTAAC  0.129
157. GGGTCTGA  0.135
158. ACAGCCAC  0.139
159. AAGAATCA  0.139
160. CGAGCAGC  0.149
161. AAGGCAAT  0.149
162. TGAACCCA  0.157
163. ACTACTTG  0.158
164. ATACTGGA  0.158
165. TACTTGCA  0.179
166. AGCACCGA  0.184
167. CAATCCCG  0.193
168. ATGTATCG  0.194
169. GAAACTTA  0.206
170. ATGCAGTA  0.22
171. AATTTAGT  0.226
172. TAGTTTCA  0.258

Source: the supplement of paper PMC3334620
